From the supplement of paper PMC4604168 (melanoma cell lines)
The other results are listed elsewhere or left out. Many values rest on one well or one pass, so single values are uncertain.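 Cells were imaged in 1,536-well plates, and nuclei stained with an antibody against cleaved PARP were counted against all DNA-stained nuclei to give the apoptosis fraction. Screening doses were chosen to leave most cells alive, and resting and induced cleaved-PARP levels differ strongly between cell lines.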

Tests used:
Experiment in all cases: cleaved PARP positive nuclei fraction relative to DMSO control; melanoma cells; higher = more apoptosis
Conditions in all cases: library dose: low library concentration; 72 h
501Mel = tested on: 501Mel
A101D = tested on: A101D
A2058 = tested on: A2058
C32 = tested on: C32
CBRC008 = tested on: CBRC008 (line from a melanoma biopsy)
CBRC014 = tested on: CBRC014 (line from a melanoma biopsy)
CBRC016 = tested on: CBRC016 (line from a melanoma biopsy)
CBRC017 = tested on: CBRC017 (line from a melanoma biopsy)
COLO792 = tested on: COLO792
COLO800 = tested on: COLO800
COLO829 = tested on: COLO829
G361 = tested on: G361
IPC-298 = tested on: IPC-298
IST-MEL1 = tested on: IST-MEL1
LB2518-MEL = tested on: LB2518-MEL
LOXIMVI = tested on: LOXIMVI

## CC(C)C[C@H](NC(=O)[C@H](Cc1ccccc1)NC(=O)c1cnccn1)B(O)O [Bortezomib] + c1cc(-c2cnn3cc(-c4ccc(OCCN5CCCCC5)cc4)cnc23)ccn1 [Dorsomorphin] (first compound 0.001 µM, partner dose 0.4 µM)
501Mel
  cleaved PARP positive nuclei fraction: 145%
A101D
  cleaved PARP positive nuclei fraction: 148%
A2058
  cleaved PARP positive nuclei fraction: 118%
C32
  cleaved PARP positive nuclei fraction: 113%
CBRC008
  cleaved PARP positive nuclei fraction: 242%
CBRC014
  cleaved PARP positive nuclei fraction: 236%
CBRC016
  cleaved PARP positive nuclei fraction: 361%
CBRC017
  cleaved PARP positive nuclei fraction: 130%
COLO792
  cleaved PARP positive nuclei fraction: 92.6%
COLO800
  cleaved PARP positive nuclei fraction: 46.2%
COLO829
  cleaved PARP positive nuclei fraction: 82.1%
G361
  cleaved PARP positive nuclei fraction: 2030%
IPC-298
  cleaved PARP positive nuclei fraction: 238%
IST-MEL1
  cleaved PARP positive nuclei fraction: 204%
LB2518-MEL
  cleaved PARP positive nuclei fraction: 415%
LOXIMVI
  cleaved PARP positive nuclei fraction: 91.7%

## Nc1ccn([C@@H]2O[C@H](CO)[C@@H](O)C2(F)F)c(=O)n1 [gemcitabine] + O=c1cc(-c2cccc3c2Sc2ccccc2S3)oc(N2CCOCC2)c1 [KU55933] (first compound 0.0004 µM, partner dose 1 µM)
501Mel
  cleaved PARP positive nuclei fraction: 55.2%
A101D
  cleaved PARP positive nuclei fraction: 21%
A2058
  cleaved PARP positive nuclei fraction: 26.3%
C32
  cleaved PARP positive nuclei fraction: 40.1%
CBRC008
  cleaved PARP positive nuclei fraction: 373%
CBRC014
  cleaved PARP positive nuclei fraction: 105%
CBRC016
  cleaved PARP positive nuclei fraction: 110%
CBRC017
  cleaved PARP positive nuclei fraction: 136%
COLO792
  cleaved PARP positive nuclei fraction: 74.9%
COLO800
  cleaved PARP positive nuclei fraction: 27.7%
COLO829
  cleaved PARP positive nuclei fraction: 145%
G361
  cleaved PARP positive nuclei fraction: 89.9%
IPC-298
  cleaved PARP positive nuclei fraction: 100%
IST-MEL1
  cleaved PARP positive nuclei fraction: 181%
LB2518-MEL
  cleaved PARP positive nuclei fraction: 53.1%
LOXIMVI
  cleaved PARP positive nuclei fraction: 97.8%

## O=C(O)[C@@H]1[O][Sb](=[O])([O][Sb]2(=[O])[O][C@H]([C@H](O)CO)[C@H](O)[C@H](C(=O)O)[O]2)[O][C@H]([C@H](O)CO)[C@@H]1O (some centres undefined) [stibogluconate] + CC(C)CCN1c2nc(Nc3cc(F)c(O)c(F)c3)ncc2N(C)C(=O)C1C [BID1870] (first compound 2 µM, partner dose 0.2 µM)
501Mel
  cleaved PARP positive nuclei fraction: 76.2%
A101D
  cleaved PARP positive nuclei fraction: 46%
A2058
  cleaved PARP positive nuclei fraction: 139%
C32
  cleaved PARP positive nuclei fraction: 178%
CBRC008
  cleaved PARP positive nuclei fraction: 137%
CBRC014
  cleaved PARP positive nuclei fraction: 100%
CBRC016
  cleaved PARP positive nuclei fraction: 108%
CBRC017
  cleaved PARP positive nuclei fraction: 192%
COLO792
  cleaved PARP positive nuclei fraction: 93.7%
COLO800
  cleaved PARP positive nuclei fraction: 114%
COLO829
  cleaved PARP positive nuclei fraction: 83.5%
G361
  cleaved PARP positive nuclei fraction: 50%
IPC-298
  cleaved PARP positive nuclei fraction: 238%
IST-MEL1
  cleaved PARP positive nuclei fraction: 36.4%
LB2518-MEL
  cleaved PARP positive nuclei fraction: 157%
LOXIMVI
  cleaved PARP positive nuclei fraction: 105%

## O=C(O)[C@@H]1[O][Sb](=[O])([O][Sb]2(=[O])[O][C@H]([C@H](O)CO)[C@H](O)[C@H](C(=O)O)[O]2)[O][C@H]([C@H](O)CO)[C@@H]1O (some centres undefined) [stibogluconate] + COc1ccc(COc2ccc(Cc3cnc(N)nc3N)cc2OC)cc1 [GW2580] (first compound 2 µM, partner dose 1 µM)
501Mel
  cleaved PARP positive nuclei fraction: 60.9%
A101D
  cleaved PARP positive nuclei fraction: 27.4%
A2058
  cleaved PARP positive nuclei fraction: 94.8%
C32
  cleaved PARP positive nuclei fraction: 112%
CBRC008
  cleaved PARP positive nuclei fraction: 30.2%
CBRC014
  cleaved PARP positive nuclei fraction: 72%
CBRC016
  cleaved PARP positive nuclei fraction: 48.2%
CBRC017
  cleaved PARP positive nuclei fraction: 146%
COLO792
  cleaved PARP positive nuclei fraction: 82.1%
COLO800
  cleaved PARP positive nuclei fraction: 32.3%
COLO829
  cleaved PARP positive nuclei fraction: 89.1%
G361
  cleaved PARP positive nuclei fraction: 99.4%
IPC-298
  cleaved PARP positive nuclei fraction: 39.2%
IST-MEL1
  cleaved PARP positive nuclei fraction: 135%
LB2518-MEL
  cleaved PARP positive nuclei fraction: 63.4%
LOXIMVI
  cleaved PARP positive nuclei fraction: 106%

## CNC(=O)c1cc(Oc2ccc(NC(=O)Nc3ccc(Cl)c(C(F)(F)F)c3)cc2)ccn1 [sorafenib] + Oc1nc(-c2ccc(C(F)(F)F)cc2)nc2c1CSCC2 [XAV939] (first compound 0.4 µM, partner dose 2 µM)
501Mel
  cleaved PARP positive nuclei fraction: 61.9%
A101D
  cleaved PARP positive nuclei fraction: 12.6%
A2058
  cleaved PARP positive nuclei fraction: 118%
C32
  cleaved PARP positive nuclei fraction: 124%
CBRC008
  cleaved PARP positive nuclei fraction: 185%
CBRC014
  cleaved PARP positive nuclei fraction: 39.6%
CBRC016
  cleaved PARP positive nuclei fraction: 77.1%
CBRC017
  cleaved PARP positive nuclei fraction: 122%
COLO792
  cleaved PARP positive nuclei fraction: 60.7%
COLO800
  cleaved PARP positive nuclei fraction: 86.9%
COLO829
  cleaved PARP positive nuclei fraction: 126%
G361
  cleaved PARP positive nuclei fraction: 96.3%
IPC-298
  cleaved PARP positive nuclei fraction: 68.7%
IST-MEL1
  cleaved PARP positive nuclei fraction: 141%
LB2518-MEL
  cleaved PARP positive nuclei fraction: 32.9%
LOXIMVI
  cleaved PARP positive nuclei fraction: 62.6%

## CC(C)C[C@H](NC(=O)[C@H](Cc1ccccc1)NC(=O)c1cnccn1)B(O)O [Bortezomib] + CC(C)CCN1c2nc(Nc3cc(F)c(O)c(F)c3)ncc2N(C)C(=O)C1C [BID1870] (first compound 0.001 µM, partner dose 0.2 µM)
501Mel
  cleaved PARP positive nuclei fraction: 386%
A101D
  cleaved PARP positive nuclei fraction: 98.4%
A2058
  cleaved PARP positive nuclei fraction: 54.6%
C32
  cleaved PARP positive nuclei fraction: 82.8%
CBRC008
  cleaved PARP positive nuclei fraction: 2090%
CBRC014
  cleaved PARP positive nuclei fraction: 278%
CBRC016
  cleaved PARP positive nuclei fraction: 221%
CBRC017
  cleaved PARP positive nuclei fraction: 392%
COLO792
  cleaved PARP positive nuclei fraction: 114%
COLO800
  cleaved PARP positive nuclei fraction: 54%
COLO829
  cleaved PARP positive nuclei fraction: 137%
G361
  cleaved PARP positive nuclei fraction: 1490%
IPC-298
  cleaved PARP positive nuclei fraction: 88.4%
IST-MEL1
  cleaved PARP positive nuclei fraction: 150%
LB2518-MEL
  cleaved PARP positive nuclei fraction: 173%
LOXIMVI
  cleaved PARP positive nuclei fraction: 58.1%

## C[C@@H](Oc1cc(-c2cnn(C3CCNCC3)c2)cnc1N)c1c(Cl)ccc(F)c1Cl [Crizotinib] + Cn1cc(/C=C2\C(=O)Nc3cccnc32)c2ccccc21 [GW441756] (first compound 0.2 µM, partner dose 0.4 µM)
501Mel
  cleaved PARP positive nuclei fraction: 99.1%
A101D
  cleaved PARP positive nuclei fraction: 10.2%
A2058
  cleaved PARP positive nuclei fraction: 222%
C32
  cleaved PARP positive nuclei fraction: 42.2%
CBRC008
  cleaved PARP positive nuclei fraction: 201%
CBRC014
  cleaved PARP positive nuclei fraction: 84.2%
CBRC016
  cleaved PARP positive nuclei fraction: 30%
CBRC017
  cleaved PARP positive nuclei fraction: 103%
COLO792
  cleaved PARP positive nuclei fraction: 67.2%
COLO800
  cleaved PARP positive nuclei fraction: 32.8%
COLO829
  cleaved PARP positive nuclei fraction: 95.6%
G361
  cleaved PARP positive nuclei fraction: 128%
IPC-298
  cleaved PARP positive nuclei fraction: 137%
IST-MEL1
  cleaved PARP positive nuclei fraction: 110%
LB2518-MEL
  cleaved PARP positive nuclei fraction: 129%
LOXIMVI
  cleaved PARP positive nuclei fraction: 50.9%

## O=C(O)c1ccc2c(c1)nc(Nc1cccc(Cl)c1)c1ccncc12 + COc1ccc2c(c1)CCC1C2CCC2(C)C(NCCCCCCN3C(=O)C=CC3=O)CCC12 [U73122] (first compound 0.4 µM, partner dose 0.4 µM)
501Mel
  cleaved PARP positive nuclei fraction: 78.9%
A101D
  cleaved PARP positive nuclei fraction: 10.1%
A2058
  cleaved PARP positive nuclei fraction: 202%
C32
  cleaved PARP positive nuclei fraction: 79.8%
CBRC008
  cleaved PARP positive nuclei fraction: 174%
CBRC014
  cleaved PARP positive nuclei fraction: 435%
CBRC016
  cleaved PARP positive nuclei fraction: 88.4%
CBRC017
  cleaved PARP positive nuclei fraction: 229%
COLO792
  cleaved PARP positive nuclei fraction: 138%
COLO800
  cleaved PARP positive nuclei fraction: 35.4%
COLO829
  cleaved PARP positive nuclei fraction: 173%
G361
  cleaved PARP positive nuclei fraction: 83.3%
IPC-298
  cleaved PARP positive nuclei fraction: 317%
IST-MEL1
  cleaved PARP positive nuclei fraction: 100%
LB2518-MEL
  cleaved PARP positive nuclei fraction: 38.7%
LOXIMVI
  cleaved PARP positive nuclei fraction: 71.3%

## C=C(c1ccc(C(=O)O)cc1)c1cc2c(cc1C)C(C)(C)CCC2(C)C [Bexarotene] + CCN(CC)CCCCNc1ncc2cc(-c3cc(OC)cc(OC)c3)c(NC(=O)NC(C)(C)C)nc2n1 [PD173074] (first compound 2 µM, partner dose 0.1 µM)
501Mel
  cleaved PARP positive nuclei fraction: 68.9%
A101D
  cleaved PARP positive nuclei fraction: 55.4%
A2058
  cleaved PARP positive nuclei fraction: 96.2%
C32
  cleaved PARP positive nuclei fraction: 128%
CBRC008
  cleaved PARP positive nuclei fraction: 117%
CBRC014
  cleaved PARP positive nuclei fraction: 257%
CBRC016
  cleaved PARP positive nuclei fraction: 157%
CBRC017
  cleaved PARP positive nuclei fraction: 117%
COLO792
  cleaved PARP positive nuclei fraction: 88.6%
COLO800
  cleaved PARP positive nuclei fraction: 41.7%
COLO829
  cleaved PARP positive nuclei fraction: 68.9%
G361
  cleaved PARP positive nuclei fraction: 87.2%
IPC-298
  cleaved PARP positive nuclei fraction: 147%
IST-MEL1
  cleaved PARP positive nuclei fraction: 136%
LB2518-MEL
  cleaved PARP positive nuclei fraction: 67.5%
LOXIMVI
  cleaved PARP positive nuclei fraction: 68.2%
